Consider three compounds from article PMC6440464 (PeerJ, 2019).

Values joined by “and” are separate entries in the source; they are usually repeats but may differ in a detail not shown here. Equal values may be shown once.

A short description of the series: Method validation: extraction recovery from rat plasma. To be noted: for Extraction recovery (Rset1/Rset2*100), AV: AV of 6 replicates.

Take `O=C(O)[C@H]1O[C@@H](Oc2c(-c3ccc(O)c(O)c3)oc3cc(O)cc(O)c3c2=O)[C@H](O)[C@@H](O)[C@@H]1O` [QG, Quercetin-3-O-β-D-glucuronide]: the “Extraction recovery (Rset1/Rset2*100), AV” value reads like this: (Conc. 100.00 ng/mL) 70.18%; (Conc. 1000.00 ng/mL) 73.51%; (Conc. 10000.00 ng/mL) 69.48%. For the same compound, the “Extraction recovery (Rset1/Rset2*100)” value was 65.43% and 75.16% and 76.07% and 69.65% and 71.01% and 63.74% (Conc. 100.00 ng/mL, single replicates NO.1-NO.6, listed as Quercetin-3-O-β-D-glucuronide (QG)); 80.35% and 65.11% and 70.35% and 79.40% and 73.26% and 72.59% (Conc. 1000.00 ng/mL, single replicates NO.1-NO.6, listed as Quercetin-3-O-β-D-glucuronide (QG)); 83.72% and 76.94% and 59.83% and 70.93% and 60.34% and 65.10% (Conc. 10000.00 ng/mL, single replicates NO.1-NO.6, listed as Quercetin-3-O-β-D-glucuronide (QG)).

For the compound `O=c1c(O[C@@H]2O[C@H](CO)[C@@H](O)[C@H](O)[C@H]2O)c(-c2ccc(O)c(O)c2)oc2cc(O)cc(O)c12` [IQ, Isoquercitrin], the “Extraction recovery (Rset1/Rset2*100), AV” value is listed as 76.93% (Conc. 48.80 ng/mL), 75.24% (Conc. 244.00 ng/mL) and 68.87% (Conc. 976.00 ng/mL). Also, the “Extraction recovery (Rset1/Rset2*100)” value (Conc. 48.80 ng/mL, single replicates NO.1-NO.6, listed as Isoquercitrin (IQ)) was 74.09% and 69.32% and 82.26% and 71.70% and 85.51% and 78.67%; the “Extraction recovery (Rset1/Rset2*100)” value (Conc. 244.00 ng/mL, single replicates NO.1-NO.6, listed as Isoquercitrin (IQ)) is 69.25% and 81.36% and 76.47% and 84.53% and 75.17% and 64.64%; the “Extraction recovery (Rset1/Rset2*100)” value (Conc. 976.00 ng/mL, single replicates NO.1-NO.6, listed as Isoquercitrin (IQ)) was 74.32% and 72.65% and 68.53% and 80.29% and 57.42% and 60.03%.

As to `O=c1c(O)c(-c2ccc(O)c(O)c2)oc2cc(O)cc(O)c12` [Qr, Quercetin], the “Extraction recovery (Rset1/Rset2*100), AV” value runs as follows: (Conc. 65.63 ng/mL) 79.20%; (Conc. 525.00 ng/mL) 71.88%; (Conc. 8400.00 ng/mL) 73.31%. For the same compound, the “Extraction recovery (Rset1/Rset2*100)” value (Conc. 65.63 ng/mL, single replicates NO.1-NO.6, listed as Quercetin (Qr)) is 82.83% and 80.22% and 77.19% and 73.51% and 79.07% and 82.36%; the “Extraction recovery (Rset1/Rset2*100)” value (Conc. 525.00 ng/mL, single replicates NO.1-NO.6, listed as Quercetin (Qr)) is 81.75% and 73.49% and 74.07% and 72.44% and 62.36% and 67.17%; the “Extraction recovery (Rset1/Rset2*100)” value (Conc. 8400.00 ng/mL, single replicates NO.1-NO.6, listed as Quercetin (Qr)) is 68.64% and 74.73% and 65.53% and 84.38% and 79.64% and 66.95%.
